In patent publication US12121500B2, “Inhibitors of Bunyaviridae and uses thereof” (priority 2020, dated 2024):

Test system: RVFV strain MP12
Test: microbe, parasite or virus in culture
Format: cell-based
Conditions: Rift Valley fever virus, Vero, read-out: Estimated EC50

## Cc1c2cc(O)c(=O)cc-2oc2cc(O)c(O)cc12 [Compound 8, reference compound]
  EC50: ≥ 120 µM
